From the supplement of paper PMC8728848
This is one part of the list.

Tests used:
Test in all cases: glycan array binding signal (z-score within array); higher = stronger binding
Conditions in all cases: glycan notation: IUPAC condensed, linker removed
[1] = molecular target: GlcNAc(b1-2)Gal(b1-3)GalNAc
Procedure, shortened: (§1)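 The Consortium for Functional Glycomics database supplied 3228 glycan arrays, of which those lacking an available protein sequence were dropped. The binding signal, a within-array Z-score, was averaged across arrays of the same protein sequence and across linkers. Negative scores can be read as non-binding.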

[2] = molecular target: GlcNAc(b1-2)Man(a1-3)[GlcNAc(b1-2)Man(a1-6)]Man(b1-4)GlcNAc(b1-4)GlcNAc
Procedure, shortened: as §1

[3] = molecular target: GlcNAc(b1-2)Man(a1-3)[GlcNAc(b1-2)Man(a1-6)]Man(b1-4)GlcNAc(b1-4)[Fuc(a1-6)]GlcNAc
Procedure, shortened: as §1

[4] = molecular target: GlcNAc(b1-2)Man(a1-3)[GlcNAc(b1-4)][GlcNAc(b1-2)Man(a1-6)]Man(b1-4)GlcNAc(b1-4)GlcNAc
Procedure, shortened: as §1

[5] = molecular target: GlcNAc(b1-2)Man(a1-3)[GlcNAc(b1-4)][GlcNAc(b1-2)Man(a1-6)]Man(b1-4)GlcNAc(b1-4)[Fuc(a1-6)]GlcNAc
Procedure, shortened: as §1

[6] = molecular target: GlcNAc(b1-2)[GlcNAc(b1-4)]Man(a1-3)[GlcNAc(b1-2)Man(a1-6)]Man(b1-4)GlcNAc(b1-4)GlcNAc
Procedure, shortened: as §1

[7] = molecular target: GlcNAc(b1-2)[GlcNAc(b1-4)]Man(a1-3)[GlcNAc(b1-4)][GlcNAc(b1-2)Man(a1-6)]Man(b1-4)GlcNAc(b1-4)GlcNAc
Procedure, shortened: as §1

[8] = molecular target: GlcNAc(b1-2)[GlcNAc(b1-4)]Man(a1-3)[GlcNAc(b1-4)][GlcNAc(b1-2)[GlcNAc(b1-6)]Man(a1-6)]Man(b1-4)GlcNAc(b1-4)GlcNAc
Procedure, shortened: as §1

[9] = molecular target: GlcNAc(b1-2)[GlcNAc(b1-4)]Man(a1-3)[GlcNAc(b1-4)][GlcNAc(b1-2)[GlcNAc(b1-6)]Man(a1-6)]Man(b1-4)GlcNAc(b1-4)[Fuc(a1-6)]GlcNAc
Procedure, shortened: as §1

[10] = molecular target: GlcNAc(b1-2)[GlcNAc(b1-6)]Man(a1-6)[GlcNAc(b1-2)Man(a1-3)]Man(b1-4)GlcNAc(b1-4)GlcNAc
Procedure, shortened: as §1

[11] = molecular target: GlcNAc(b1-2)[GlcNAc(b1-6)]Man(a1-6)[GlcNAc(b1-2)Man(a1-3)]Man(b1-4)GlcNAc(b1-4)[Fuc(a1-6)]GlcNAc
Procedure, shortened: as §1

[12] = molecular target: GlcNAc(b1-2)[GlcNAc(b1-6)]Man(a1-6)[GlcNAc(b1-4)][GlcNAc(b1-2)Man(a1-3)]Man(b1-4)GlcNAc(b1-4)GlcNAc
Procedure, shortened: as §1

GlcNAc(b1-3)Fuc = molecular target: GlcNAc(b1-3)Fuc
Procedure, shortened: as §1

GlcNAc(b1-3)Gal = molecular target: GlcNAc(b1-3)Gal
Procedure, shortened: as §1

[13] = molecular target: GlcNAc(b1-3)Gal(b1-3)GalNAc
Procedure, shortened: as §1

GlcNAc(b1-3)Gal(b1-4)Glc = molecular target: GlcNAc(b1-3)Gal(b1-4)Glc
Procedure, shortened: as §1

[14] = molecular target: GlcNAc(b1-3)Gal(b1-4)GlcNAc
Procedure, shortened: as §1

[15] = molecular target: GlcNAc(b1-3)Gal(b1-4)GlcNAc(b1-2)Man(a1-3)[GlcNAc(b1-3)Gal(b1-4)GlcNAc(b1-2)Man(a1-6)]Man(b1-4)GlcNAc(b1-4)GlcNAc
Procedure, shortened: as §1

[16] = molecular target: GlcNAc(b1-3)Gal(b1-4)GlcNAc(b1-2)Man(a1-3)[GlcNAc(b1-3)Gal(b1-4)GlcNAc(b1-2)Man(a1-6)]Man(b1-4)GlcNAc(b1-4)[Fuc(a1-6)]GlcNAc
Procedure, shortened: as §1

[17] = molecular target: GlcNAc(b1-3)Gal(b1-4)GlcNAc(b1-2)[GlcNAc(b1-3)Gal(b1-4)GlcNAc(b1-6)]Man(a1-6)[GlcNAc(b1-3)Gal(b1-4)GlcNAc(b1-2)Man(a1-3)]Man(b1-4)GlcNAc(b1-4)GlcNAc
Procedure, shortened: as §1

[18] = molecular target: GlcNAc(b1-3)Gal(b1-4)GlcNAc(b1-3)Gal(b1-4)GlcNAc
Procedure, shortened: as §1

[19] = molecular target: GlcNAc(b1-3)Gal(b1-4)GlcNAc(b1-3)Gal(b1-4)GlcNAc(b1-2)Man(a1-3)[GlcNAc(b1-3)Gal(b1-4)GlcNAc(b1-3)Gal(b1-4)GlcNAc(b1-2)Man(a1-6)]Man(b1-4)GlcNAc(b1-4)GlcNAc
Procedure, shortened: as §1

B1: YghJ (Escherichia coli), E3PJ90 (protein)
chain: MNKKFKYKKSLLAAILSATLLAGCDGGGSGSSSDTPPVDSGTGSLPEVKPDPTPNPEPTPEPTPDPEPTPEPIPDPEPTPEPEPEPVPTKTGYLTLGGSQRVTGATCNGESSDGFTFKPGEDVTCVAGNTTIATFNTQSEAARSLRAVEKVSFSLEDAQELAGSDDKKSNAVSLVTSSNSCPANTEQVCLTFSSVIESKRFDSLYKQIDLAPEEFKKLVNEEVENNAATDKAPSTHTSPVVPVTTPGTKPDLNASFVSANAEQFYQYQPTEIILSEGRLVDSQGYGVAGVNYYTNSGRGVTGENGEFSFSWGEAISFGIDTFELGSVRGNKSTIALTELGDEVRGANIDQLIHRYSTTGQNNTRVVPDDVRKVFAEYPNVINEIINLSLSNGATLGEGEQVVNLPNEFIEQFNTGQAKEIDTAICAKTDGCNEARWFSLTTRNVNDGQIQGVINKLWGVDTNYKSVSKFHVFHDSTNFYGSTGNARGQAVVNISNAAFPILMARNDKNYWLAFGEKRAWDKNELAYITEAPSIVRPENVTRETASFNLPFISLGQVGDGKLMVIGNPHYNSILRCPNGYSWNGGVNKDGQCTLNSDPDDMKNFMENVLRYLSNDRWLPDAKSSMTVGTNLETVYFKKHGQVLGNSAPFAFHKDFTGITVKPMTSYGNLNPDEVPLLILNGFEYVTQWGSDPYSIPLRADTSKPKLTQQDVTDLIAYMNKGGSVLIMENVMSNLKEESASGFVRLLDAAGLSMALNKSVVNNDPQGYPDRVRQRRSTPIWVYERYPAVDGKPPYTIDDTTKEVIWKYQQENKPDDKPKLEVASWQEEVEGKQVTQFAFIDEADHKTPESLAAAKQRILDAFPGLEVCKDSDYHYEVNCLEYRPGTDVPVTGGMYVPQYTQLDLSADTAKAMLQAADLGTNIQRLYQHELYFRTNGRQGERLNSVDLERLYQNMSVWLWNETKYRYEEGKEDELGFKTFTEFLNCYTNNAYVGTQCSAELKKSLIDNKMIYGEESSKAGMMNPSYPLNYMEKPLTRLMLGRSWWDLNIKVDVEKYPGVVNTNGETVTQNINLYSAPTKWFAGNMQSTGLWAPAQQEVSIESKSTVPVTVTVALADDLTGREKHEVSLNRPPRVTKTYDLKANDKVTFKVPYGGLIYIKGDSKEVQSADFTFTGVVKAPFYKDGKWQHDLNSPAPLGELESASFVYTTPKKNLNASNYTGGLEQFANDLDTFASSMNDFYGRDSEDGKHRMFTYKNLPGHKHRFANDVQISIGDAHSGYPVMNSSFSPNSTTLPTTPLNDWLIWHEVGHNAAETPLTVPGATEVANNVLALYMQDRYLGKMNRVADDITVAPEYLEESNGQAWARGGAGDRLLMYAQLKEWAEKNFDIKKWYPDGTPLPEFYSEREGMKGWNLFQLMHRKARGDEVSNDKFGGKNYCAESNGNAADTLMLCASWVAQTDLSEFFKKWNPGANAYQLPGASEMSFEGGVSQSAYNTLASLDLPKPEQGPETINQVTEHKMSAE
B1 was tested, and the “glycan array binding signal (z-score)” value [1] was -0.442, the “glycan array binding signal (z-score)” value [2] was 0.16 and the “glycan array binding signal (z-score)” value [3] was -0.329. The “glycan array binding signal (z-score)” value [4] was 0.504, the “glycan array binding signal (z-score)” value [5] was 0.724 and the “glycan array binding signal (z-score)” value [6] was -1.8. For the same binder, the “glycan array binding signal (z-score)” value [7] was -1.65, the “glycan array binding signal (z-score)” value [8] was -0.048 and the “glycan array binding signal (z-score)” value [9] was -1.05. For the same binder, the “glycan array binding signal (z-score)” value [10] was 0.097, the “glycan array binding signal (z-score)” value [11] was 0.342 and the “glycan array binding signal (z-score)” value [12] was 1.29. The “glycan array binding signal (z-score)” value (GlcNAc(b1-3)Fuc) was -0.862, the “glycan array binding signal (z-score)” value (GlcNAc(b1-3)Gal) was -1.51 and the “glycan array binding signal (z-score)” value [13] was -0.197. The “glycan array binding signal (z-score)” value (GlcNAc(b1-3)Gal(b1-4)Glc) was -0.645, the “glycan array binding signal (z-score)” value [14] was -0.102 and the “glycan array binding signal (z-score)” value [15] was -0.98. The “glycan array binding signal (z-score)” value [16] was -1.21, the “glycan array binding signal (z-score)” value [17] was -1.19 and the “glycan array binding signal (z-score)” value [18] was -1.44. For the same binder, the “glycan array binding signal (z-score)” value [19] was 0.4.
